Data from paper PMC3725416.

Sequences of proteins named here, by UniProt entry; tags and fusion partners are left off. A change or cut given only in a name is not applied to a line headed by its entry.
UniProt Q9NZ52: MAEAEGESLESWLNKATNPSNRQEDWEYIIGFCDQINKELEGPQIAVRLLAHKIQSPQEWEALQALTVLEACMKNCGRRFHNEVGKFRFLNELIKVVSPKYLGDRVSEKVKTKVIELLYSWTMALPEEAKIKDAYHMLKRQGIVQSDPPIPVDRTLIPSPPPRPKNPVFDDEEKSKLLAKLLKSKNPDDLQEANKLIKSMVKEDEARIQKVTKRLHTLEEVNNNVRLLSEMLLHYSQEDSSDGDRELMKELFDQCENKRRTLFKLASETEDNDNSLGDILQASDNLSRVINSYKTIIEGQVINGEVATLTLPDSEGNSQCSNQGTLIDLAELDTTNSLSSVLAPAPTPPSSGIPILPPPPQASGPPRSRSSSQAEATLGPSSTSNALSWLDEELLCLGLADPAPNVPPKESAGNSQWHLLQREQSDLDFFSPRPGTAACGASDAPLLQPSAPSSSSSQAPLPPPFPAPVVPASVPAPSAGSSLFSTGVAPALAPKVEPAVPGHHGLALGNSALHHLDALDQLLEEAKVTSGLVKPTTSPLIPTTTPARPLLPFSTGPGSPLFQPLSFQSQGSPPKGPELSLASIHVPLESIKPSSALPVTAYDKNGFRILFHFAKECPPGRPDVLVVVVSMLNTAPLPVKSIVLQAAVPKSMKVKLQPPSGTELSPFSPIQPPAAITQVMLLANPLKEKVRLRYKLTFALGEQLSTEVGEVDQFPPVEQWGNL
UniProt P84077: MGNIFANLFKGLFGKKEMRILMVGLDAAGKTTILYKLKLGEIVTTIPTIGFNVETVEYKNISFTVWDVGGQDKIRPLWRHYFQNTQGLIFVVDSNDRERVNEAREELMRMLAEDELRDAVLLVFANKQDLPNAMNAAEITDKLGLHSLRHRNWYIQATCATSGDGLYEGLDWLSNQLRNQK
UniProt P84079: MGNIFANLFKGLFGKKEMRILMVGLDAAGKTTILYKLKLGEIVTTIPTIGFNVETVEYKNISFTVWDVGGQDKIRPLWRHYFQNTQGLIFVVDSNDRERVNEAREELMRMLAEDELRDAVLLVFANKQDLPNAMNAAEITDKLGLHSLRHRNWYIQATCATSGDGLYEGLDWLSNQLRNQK

Key:
[1] = molecular target: GST-VHS-GAT domain of GGA3 (UniProt Q9NZ52); experiment: pull-down; immobilised GST-VHS-GAT domain of GGA3 incubated with GDPβS- or GTPγS-loaded his6WT-Arf1 or his6ΔCT-Arf1; western blot with anti-Arf1 or anti-GST; both purified
[2] = molecular target: GST-VHS-GAT domain of GGA3 (UniProt Q9NZ52); experiment: pull-down; extracts of cultured neurons (with or without NMDA; control or GIT1 siRNA) incubated with immobilised GST-VHS-GAT; western blot with anti-Arf1 and anti-GST; only the target purified

Substance	binding [1]	binding [2]
his6-ΔCT-Arf1 (from UniProt P84077 1-177) (domain or fragment)	binds	
his6-Arf1 (wild type) (from UniProt P84077 1-181)	binds	
Arf1 (endogenous, cultured neurons) (from UniProt P84079 1-181)		binds

These are yes or no findings as the source states them, for the method shown. A result given as binding can be weak or reduced; the word gives no strength. For part of these data: Binding seen in cells or lysates may run through a third protein.
